Measured values: the supplement of paper PMC5949888
± gives the standard deviation of the averaged measurements. Most values lie at the floor of the assay. Slopes are relative: functional sequences can read slightly below zero.

System: Saccharomyces cerevisiae PS128 hsf1 delta, HSF1(1-493) fusion
Assay: growth estimate (transactivation domain function in HSF1 fusion, heat-shock survival) (a.u. (slope of normalised read count over time)); higher = stronger growth at 37°C, i.e. more transactivation activity
Conditions: library: random library

Row | Substance | growth estimate
1 | QIIPGEESSWLAMRKTGRKQ | < -0.25
2 | TRDSGMGMRGGGIPSIAV | < -0.25
3 | FMSLVPGGLL | < -0.25
4 | YRWSSTYACRQYRISVQGRS | < -0.25
5 | IASENPGP | < -0.25
6 | PEIRRSPVISVLLCR | < -0.25
7 | RPPVPTSSRWI | < -0.25
8 | APRSRKWRTGDCVRMDKPGA | < -0.25
9 | LGPSLNAFRKALCSYYGWNS | -0.245
10 | SGVDYLHWNLVPQSAHIWNW | < -0.25
11 | NHDCHPDDMRRSMGAWVIGR | < -0.25
12 | VVDMWPIRHRKRVGQWMIRS | < -0.25
13 | AIDSRLDDVLRWEIPRAGTS | -0.217
14 | NRLWFAKSRR | < -0.25
15 | VPMGGV | < -0.25
16 | GTVFV | < -0.25
17 | VTPWSSRSGPGSVIYFS | < -0.25
18 | GAI | < -0.25
19 | LWP | < -0.25
20 | ESI | < -0.25
21 | CACWSGLDCVPLVCAGVHIF | < -0.25
22 | LIHQIRSEPRLECGYPVGLS | < -0.25
23 | CTFDITMK | < -0.25
24 | ASFGSK | < -0.25
25 | STARHPG | < -0.25

Given with each value named: entries from further up.
APRSRKWRTGDCVRMDKPGA
  growth estimate: < -0.25
LGPSLNAFRKALCSYYGWNS
  growth estimate: -0.245
SGVDYLHWNLVPQSAHIWNW
  growth estimate: < -0.25
NHDCHPDDMRRSMGAWVIGR
  growth estimate: < -0.25

The list goes on:

Row | Substance | growth estimate
26 | KSGMYWGLLEPLSMPKQCSP | < -0.25
27 | CTWHNVCDALYIGMVPLRNK | -0.243
28 | RRTPS | < -0.25
29 | SPLRYNTIMYIITGLWLRDV | < -0.25
30 | NRLDFLT | < -0.25
31 | SCNGGTHVGWSQYLKSRSYD | < -0.25
32 | DQIYGASGSVKGHGGHPHYL | -0.239
33 | RQGT | < -0.25
34 | IWSSNKITSGMSDASAV | < -0.25
35 | TAGSQYRRGLGEHLIHRSYD | < -0.25
36 | EDAGRAWGFYS | < -0.25
37 | SKWPDLGDLIDKDTPPFAFL | 4.83
38 | LRL | -0.248 ± 0.0041
39 | PPGGLMRT | < -0.25
40 | YGTGSQRLA | < -0.25
41 | TTWQL | < -0.25
42 | IRFRWVCEFGQK | < -0.25
43 | HRDASLPTGAVPSDKVCAWP | < -0.25
44 | IIVMVRAFGRQPWRPDRKRT | < -0.25
45 | ELWVQARSIGVVLGASRDPS | < -0.25
46 | LDSLRAFG | < -0.25
47 | IQSYWSSGQ | < -0.25
48 | CRGPITGWTWPTTNLGAICG | < -0.25
49 | HCGHISRRPNIWR | < -0.25
50 | IGSAIRERVPRVHTPRS | < -0.25

Row | Substance | growth estimate
51 | VNGGGNKTPVSTLGSPRCPH | < -0.25
52 | KLQIASKDKVKEIGRERNC | -0.0562
53 | HPAITPTNGAGENELTARDV | < -0.25
54 | MGLSQGGIGSSARLSVWRVR | < -0.25
55 | LIDNPGLFDGDPCAEQCELG | < -0.25
56 | SIVLQAEALCSIIRASRLPE | < -0.25
57 | WGARTSARLHLAAPPQPDNV | < -0.25
58 | RLSTLRFGGEWLETYCPLCM | < -0.25
59 | STRESHRDIYRAVKSCLVSE | < -0.25
60 | PACCLPLFDRYNSI | -0.158
61 | VPLKVERGTQRFST | < -0.25
62 | MCEIIGLHAGSRA | < -0.25
63 | RYVFEGV | < -0.25
64 | RLAIPSDFRIRGWLRVVEG | < -0.25
65 | CGTATQPVN | < -0.25
66 | SNIL | < -0.25
67 | VINPSSYYPGKTRTFSSCVR | < -0.25
68 | CAVVIPMDLSIEAKAHVLTS | < -0.25
69 | EGVVGLSKAWVARVHHVVGS | < -0.25
70 | WWWGADLLWGSERELENAIC | < -0.25
71 | QWYGNLRARHFRDR | < -0.25
72 | FIEIWLGPHVFQFCQAALGA | < -0.25
73 | YIITVSISQVRDSQRGHSNS | < -0.25
74 | AVVHNNVDWF | < -0.25
75 | ASSIAVPARRLTSSLPLVSV | < -0.25

Row | Substance | growth estimate
76 | WDLLSMRGPF | < -0.25
77 | TSLYDFSMLLLSPPIYGNEC | < -0.25
78 | QPQNVSGSIEPRSTGLSIFH | < -0.25
79 | RFSYFEKCVPGPVRVQETEA | < -0.25
80 | NGRTWPERRATALRGGNPGG | < -0.25
81 | EQGWIKITNNHLLYHHQCRT | < -0.25
82 | SLF | < -0.25
83 | QPERSKYWRD | < -0.25
84 | CVHSGRSL | < -0.25
85 | AIVIVS | < -0.25
86 | TQMREFGHERGPRGFVRRCR | < -0.25
87 | FPSGPCGCRDT | < -0.25
88 | ECRASSRSGVLGSVGKPLSR | < -0.25
89 | RTARFH | < -0.25
90 | QRWITGSFLSSAYENVCGYE | < -0.25
91 | GLSGLKLVSPRSPACISYPV | < -0.25
92 | GGETRNHA | < -0.25
93 | ADCSVACTDDHSFAPPTFHR | < -0.25
94 | NPQRFNTRAHET | < -0.25
95 | CGSVRCRDAGRVGTHRVWGR | < -0.25
96 | AIDLVWKITTKNG | < -0.25
97 | QPAQKHNREGATLDGDEQHL | < -0.25
98 | SSR | < -0.25
99 | KIRS | < -0.25
100 | YAG | -0.0464
